Data from the supplement of paper PMC6411743.
± gives the standard deviation of the averaged measurements. This is a selection; strong and weak results do not stand in their true shares.

The chains behind the UniProt entries cited, without tags or fusion partners. Where a name states a change or a piece, a line headed by the entry shows the natural chain unless it says otherwise.
UniProt Q10589, whole entry: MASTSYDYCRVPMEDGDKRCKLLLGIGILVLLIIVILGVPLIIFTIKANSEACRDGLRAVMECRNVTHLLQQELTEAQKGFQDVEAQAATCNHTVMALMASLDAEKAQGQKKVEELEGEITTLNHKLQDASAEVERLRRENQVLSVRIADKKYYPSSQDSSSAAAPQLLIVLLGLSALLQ
UniProt Q05655: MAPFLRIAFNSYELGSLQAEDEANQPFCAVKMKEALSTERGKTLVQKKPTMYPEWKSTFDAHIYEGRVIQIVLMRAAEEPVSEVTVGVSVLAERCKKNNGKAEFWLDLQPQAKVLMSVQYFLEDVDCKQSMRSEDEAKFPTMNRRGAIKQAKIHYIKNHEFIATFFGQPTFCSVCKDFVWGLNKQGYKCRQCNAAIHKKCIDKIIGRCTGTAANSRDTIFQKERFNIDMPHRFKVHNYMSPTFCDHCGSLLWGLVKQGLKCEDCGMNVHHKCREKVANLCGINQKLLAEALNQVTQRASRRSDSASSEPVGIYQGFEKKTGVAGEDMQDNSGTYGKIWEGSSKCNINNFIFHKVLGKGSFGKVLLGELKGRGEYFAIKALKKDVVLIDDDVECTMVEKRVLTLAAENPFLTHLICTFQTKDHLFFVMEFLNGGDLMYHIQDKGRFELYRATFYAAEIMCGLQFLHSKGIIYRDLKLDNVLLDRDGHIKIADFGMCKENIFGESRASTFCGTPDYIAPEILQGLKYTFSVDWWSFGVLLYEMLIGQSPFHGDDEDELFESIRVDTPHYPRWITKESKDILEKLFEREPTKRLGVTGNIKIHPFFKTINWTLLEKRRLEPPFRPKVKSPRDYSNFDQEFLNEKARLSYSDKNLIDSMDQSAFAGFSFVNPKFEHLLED
UniProt Q04759: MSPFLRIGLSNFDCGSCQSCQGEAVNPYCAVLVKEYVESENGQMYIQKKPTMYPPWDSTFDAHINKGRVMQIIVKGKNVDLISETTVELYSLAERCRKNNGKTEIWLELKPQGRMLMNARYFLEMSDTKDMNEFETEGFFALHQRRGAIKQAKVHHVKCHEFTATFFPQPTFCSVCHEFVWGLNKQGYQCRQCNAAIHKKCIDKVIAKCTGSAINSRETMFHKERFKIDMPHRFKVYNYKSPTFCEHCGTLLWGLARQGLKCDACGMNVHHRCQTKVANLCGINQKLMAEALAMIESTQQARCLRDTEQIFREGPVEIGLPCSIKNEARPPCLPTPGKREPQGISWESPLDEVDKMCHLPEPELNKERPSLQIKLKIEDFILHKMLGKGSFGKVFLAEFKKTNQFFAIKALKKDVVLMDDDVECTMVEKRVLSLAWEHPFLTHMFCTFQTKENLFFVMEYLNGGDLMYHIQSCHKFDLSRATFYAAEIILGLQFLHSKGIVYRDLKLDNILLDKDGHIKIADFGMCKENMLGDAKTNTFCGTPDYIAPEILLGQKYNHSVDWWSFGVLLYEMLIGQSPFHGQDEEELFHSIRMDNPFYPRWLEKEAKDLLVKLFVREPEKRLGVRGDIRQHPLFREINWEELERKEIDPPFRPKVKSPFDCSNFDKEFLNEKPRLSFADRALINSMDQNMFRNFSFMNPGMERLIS
UniProt Q04941: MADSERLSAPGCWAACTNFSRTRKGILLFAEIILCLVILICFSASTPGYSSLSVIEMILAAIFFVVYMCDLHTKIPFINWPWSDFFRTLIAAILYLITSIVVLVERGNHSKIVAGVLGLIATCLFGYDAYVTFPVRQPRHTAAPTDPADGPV
UniProt Q13242, whole entry: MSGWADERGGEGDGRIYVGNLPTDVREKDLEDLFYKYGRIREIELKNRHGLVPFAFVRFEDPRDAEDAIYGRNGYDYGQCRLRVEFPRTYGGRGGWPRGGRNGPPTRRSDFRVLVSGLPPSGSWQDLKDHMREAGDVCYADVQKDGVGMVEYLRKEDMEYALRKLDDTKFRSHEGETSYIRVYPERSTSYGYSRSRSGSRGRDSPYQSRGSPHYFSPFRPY
UniProt Q01968: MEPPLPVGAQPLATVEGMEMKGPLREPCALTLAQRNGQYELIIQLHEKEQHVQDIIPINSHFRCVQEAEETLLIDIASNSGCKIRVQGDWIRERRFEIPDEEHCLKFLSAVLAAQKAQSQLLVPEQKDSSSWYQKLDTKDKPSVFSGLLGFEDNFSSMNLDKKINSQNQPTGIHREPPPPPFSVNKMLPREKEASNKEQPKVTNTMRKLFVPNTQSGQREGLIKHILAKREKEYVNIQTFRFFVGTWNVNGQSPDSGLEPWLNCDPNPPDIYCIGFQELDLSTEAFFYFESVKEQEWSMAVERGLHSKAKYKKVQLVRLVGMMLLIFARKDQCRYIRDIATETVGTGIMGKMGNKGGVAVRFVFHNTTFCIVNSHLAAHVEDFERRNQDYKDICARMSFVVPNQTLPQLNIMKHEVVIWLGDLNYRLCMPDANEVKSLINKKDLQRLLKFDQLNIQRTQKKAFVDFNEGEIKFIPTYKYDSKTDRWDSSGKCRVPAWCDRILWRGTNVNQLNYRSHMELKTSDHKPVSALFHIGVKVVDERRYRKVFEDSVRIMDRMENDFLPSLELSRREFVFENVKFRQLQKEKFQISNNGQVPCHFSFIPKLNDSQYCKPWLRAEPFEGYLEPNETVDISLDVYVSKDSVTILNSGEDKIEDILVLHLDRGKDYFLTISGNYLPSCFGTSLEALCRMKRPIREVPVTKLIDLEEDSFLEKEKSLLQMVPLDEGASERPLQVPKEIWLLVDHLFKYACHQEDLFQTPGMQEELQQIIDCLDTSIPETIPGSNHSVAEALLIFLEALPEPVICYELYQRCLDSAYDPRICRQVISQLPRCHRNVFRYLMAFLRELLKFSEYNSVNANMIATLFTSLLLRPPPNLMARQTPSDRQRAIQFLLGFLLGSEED
UniProt Q08999: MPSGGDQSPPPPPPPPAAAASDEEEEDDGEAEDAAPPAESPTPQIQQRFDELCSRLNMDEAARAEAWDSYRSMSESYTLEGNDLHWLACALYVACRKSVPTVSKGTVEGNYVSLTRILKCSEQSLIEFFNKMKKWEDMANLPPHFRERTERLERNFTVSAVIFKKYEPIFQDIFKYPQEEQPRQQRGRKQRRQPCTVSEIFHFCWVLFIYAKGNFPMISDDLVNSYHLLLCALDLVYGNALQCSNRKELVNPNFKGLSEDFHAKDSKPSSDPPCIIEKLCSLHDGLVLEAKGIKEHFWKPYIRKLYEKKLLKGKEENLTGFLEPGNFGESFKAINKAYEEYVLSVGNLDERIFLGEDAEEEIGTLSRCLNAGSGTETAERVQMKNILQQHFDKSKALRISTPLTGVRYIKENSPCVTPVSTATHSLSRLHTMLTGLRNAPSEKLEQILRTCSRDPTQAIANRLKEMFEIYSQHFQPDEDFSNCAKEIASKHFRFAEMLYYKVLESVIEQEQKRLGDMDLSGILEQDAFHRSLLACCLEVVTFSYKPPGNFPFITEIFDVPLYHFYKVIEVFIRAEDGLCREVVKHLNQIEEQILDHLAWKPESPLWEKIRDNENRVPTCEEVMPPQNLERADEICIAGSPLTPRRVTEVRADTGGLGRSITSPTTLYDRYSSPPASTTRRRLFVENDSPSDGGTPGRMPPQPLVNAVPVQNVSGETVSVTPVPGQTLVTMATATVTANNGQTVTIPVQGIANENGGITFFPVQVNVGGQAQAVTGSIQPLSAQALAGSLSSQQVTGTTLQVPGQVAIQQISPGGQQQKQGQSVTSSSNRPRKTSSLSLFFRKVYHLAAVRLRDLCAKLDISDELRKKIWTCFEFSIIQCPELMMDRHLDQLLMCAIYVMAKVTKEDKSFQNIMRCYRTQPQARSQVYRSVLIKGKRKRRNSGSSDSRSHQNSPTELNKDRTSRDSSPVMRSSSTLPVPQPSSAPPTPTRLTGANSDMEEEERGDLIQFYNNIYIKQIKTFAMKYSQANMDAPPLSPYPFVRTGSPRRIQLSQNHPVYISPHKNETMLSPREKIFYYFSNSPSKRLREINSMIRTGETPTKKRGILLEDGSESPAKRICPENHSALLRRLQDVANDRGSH
UniProt Q09161: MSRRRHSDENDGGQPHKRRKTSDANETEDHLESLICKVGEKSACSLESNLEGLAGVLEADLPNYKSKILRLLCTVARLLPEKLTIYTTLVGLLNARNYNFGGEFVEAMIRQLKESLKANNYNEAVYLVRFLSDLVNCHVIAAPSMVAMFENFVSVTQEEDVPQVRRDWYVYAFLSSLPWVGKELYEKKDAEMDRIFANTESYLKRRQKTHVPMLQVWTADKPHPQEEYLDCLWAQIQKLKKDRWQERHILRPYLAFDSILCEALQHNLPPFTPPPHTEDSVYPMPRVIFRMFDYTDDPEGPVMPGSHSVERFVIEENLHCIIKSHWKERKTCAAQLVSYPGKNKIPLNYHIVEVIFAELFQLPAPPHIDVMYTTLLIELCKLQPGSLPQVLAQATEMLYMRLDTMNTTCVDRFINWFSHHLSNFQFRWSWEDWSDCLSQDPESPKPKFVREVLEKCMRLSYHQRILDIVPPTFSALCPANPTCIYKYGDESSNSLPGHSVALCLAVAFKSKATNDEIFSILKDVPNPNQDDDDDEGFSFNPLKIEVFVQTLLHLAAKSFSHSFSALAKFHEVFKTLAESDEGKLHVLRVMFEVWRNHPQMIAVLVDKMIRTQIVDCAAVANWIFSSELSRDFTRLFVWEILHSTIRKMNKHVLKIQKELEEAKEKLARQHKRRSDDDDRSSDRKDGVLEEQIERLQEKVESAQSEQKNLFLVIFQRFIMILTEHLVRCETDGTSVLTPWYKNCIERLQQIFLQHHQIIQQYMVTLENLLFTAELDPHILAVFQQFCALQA
UniProt Q05048: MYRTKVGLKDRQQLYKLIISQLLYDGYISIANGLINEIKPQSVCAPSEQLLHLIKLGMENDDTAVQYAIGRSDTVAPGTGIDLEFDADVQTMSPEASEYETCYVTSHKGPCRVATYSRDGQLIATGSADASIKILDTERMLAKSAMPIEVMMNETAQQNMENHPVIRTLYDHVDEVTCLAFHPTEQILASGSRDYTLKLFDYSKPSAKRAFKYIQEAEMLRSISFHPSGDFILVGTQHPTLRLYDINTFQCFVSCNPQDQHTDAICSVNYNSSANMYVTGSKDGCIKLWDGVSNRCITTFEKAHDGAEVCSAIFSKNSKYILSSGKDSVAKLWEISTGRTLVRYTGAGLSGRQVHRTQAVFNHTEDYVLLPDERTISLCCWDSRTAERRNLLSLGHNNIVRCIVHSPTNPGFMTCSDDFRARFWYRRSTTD
UniProt Q03111: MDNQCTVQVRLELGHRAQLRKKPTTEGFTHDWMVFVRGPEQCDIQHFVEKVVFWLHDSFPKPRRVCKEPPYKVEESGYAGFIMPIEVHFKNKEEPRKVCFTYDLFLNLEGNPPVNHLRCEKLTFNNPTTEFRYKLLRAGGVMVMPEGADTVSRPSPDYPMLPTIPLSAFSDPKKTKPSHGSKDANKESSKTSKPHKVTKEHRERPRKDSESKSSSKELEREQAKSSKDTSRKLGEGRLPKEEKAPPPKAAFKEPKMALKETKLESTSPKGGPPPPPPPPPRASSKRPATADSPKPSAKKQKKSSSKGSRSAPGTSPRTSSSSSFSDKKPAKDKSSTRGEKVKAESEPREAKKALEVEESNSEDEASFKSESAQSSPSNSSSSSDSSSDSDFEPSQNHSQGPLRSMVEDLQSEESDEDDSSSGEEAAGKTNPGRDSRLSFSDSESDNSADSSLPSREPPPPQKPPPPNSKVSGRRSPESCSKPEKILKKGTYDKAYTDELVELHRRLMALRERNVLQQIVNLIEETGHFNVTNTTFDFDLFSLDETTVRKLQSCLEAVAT
UniProt Q13263: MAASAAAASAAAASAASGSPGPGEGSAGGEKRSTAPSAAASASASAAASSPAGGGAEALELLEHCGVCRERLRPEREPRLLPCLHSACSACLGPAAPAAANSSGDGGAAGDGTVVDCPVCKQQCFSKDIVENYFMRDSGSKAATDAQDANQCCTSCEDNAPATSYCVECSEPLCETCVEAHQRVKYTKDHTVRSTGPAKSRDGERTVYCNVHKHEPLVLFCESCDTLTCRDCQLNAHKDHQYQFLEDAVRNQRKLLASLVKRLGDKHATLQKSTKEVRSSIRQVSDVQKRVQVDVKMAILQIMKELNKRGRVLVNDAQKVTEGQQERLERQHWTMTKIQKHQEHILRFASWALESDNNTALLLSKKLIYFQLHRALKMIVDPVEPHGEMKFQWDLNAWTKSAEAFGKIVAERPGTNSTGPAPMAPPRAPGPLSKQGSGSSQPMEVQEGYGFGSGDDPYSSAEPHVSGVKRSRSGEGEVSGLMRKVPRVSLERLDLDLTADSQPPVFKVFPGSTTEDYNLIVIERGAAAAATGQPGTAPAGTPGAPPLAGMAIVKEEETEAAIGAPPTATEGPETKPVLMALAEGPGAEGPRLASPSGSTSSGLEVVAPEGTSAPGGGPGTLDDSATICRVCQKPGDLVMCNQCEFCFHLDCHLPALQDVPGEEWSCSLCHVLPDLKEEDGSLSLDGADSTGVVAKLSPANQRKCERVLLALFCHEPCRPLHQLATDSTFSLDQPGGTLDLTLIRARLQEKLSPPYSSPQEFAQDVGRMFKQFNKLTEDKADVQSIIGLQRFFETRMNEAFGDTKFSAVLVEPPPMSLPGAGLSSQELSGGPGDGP

Compound: Nc1ncnc2c1ncn2[C@@H]1O[C@H](COP(=O)(O)OP(=O)(O)OP(=O)(O)O)[C@@H](O)[C@H]1O [adenosine triphosphate]
Assay: NP40-soluble protein abundance relative to vehicle (solubility fold change) (ratio); higher = more soluble protein in presence of ATP
Outline: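 Jurkat crude lysate (Dounce-homogenised) was treated with eight concentrations from 0.1 to 10 mM for 10 min at room temperature, then 3 min at 37 °C. It was solubilised with 0.8% NP40 and benzonase (60 min, 4 °C) and ultracentrifuged, and the supernatant was TMT-labelled for LC-MS/MS. Intensities were vsn-normalised, and the value is the fold change against the NP40-processed vehicle per replicate, from three independent experiments.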

Target	NP40-soluble protein abundance (concentration: 1mM)	NP40-soluble protein abundance (concentration: 2mM)	NP40-soluble protein abundance (concentration: 4mM)	NP40-soluble protein abundance (concentration: 6mM)	NP40-soluble protein abundance (concentration: 8mM)	NP40-soluble protein abundance (concentration: 10mM)
UniProt Q10589 and related entries	1.07 ± 0.021	1.08 ± 0.038	1.2 ± 0.15	1.17 ± 0.024	1.17 ± 0.16	1.09 ± 0.1
REEP5 (UniProt Q00765)	0.865 ± 0.08	0.9 ± 0.035	0.896 ± 0.055	0.948 ± 0.092	0.873 ± 0.072	0.86 ± 0.028
UniProt Q13469 and related entries	0.995 ± 0.048	1.01 ± 0.058	1.01 ± 0.053	1.01 ± 0.084	0.981 ± 0.07	1 ± 0.095
GNL2 (UniProt Q13823)	1.08 ± 0.029	1.15 ± 0.024	1.23 ± 0.078	1.32 ± 0.06	1.29 ± 0.055	1.34 ± 0.071
UniProt Q05655	1.02 ± 0.084	1 ± 0.075	1.01 ± 0.046	0.967 ± 0.1	1.01 ± 0.076	0.977 ± 0.047
SPAG1 (UniProt Q07617)	0.936 ± 0.091	0.968 ± 0.04	0.998 ± 0.028	0.946 ± 0.068	0.91 ± 0.054	0.922 ± 0.039
PRKCQ (UniProt Q04759)	1.04 ± 0.086	1.04 ± 0.092	1.02 ± 0.059	0.969 ± 0.1	1.05 ± 0.059	1.02 ± 0.05
PLP2 (UniProt Q04941)	0.935 ± 0.1	0.923 ± 0.083	0.967 ± 0.13	0.95 ± 0.062	0.913 ± 0.072	0.873 ± 0.01
UniProt Q06210 and related entries	1.02 ± 0.095	0.983 ± 0.069	0.963 ± 0.054	0.874 ± 0.11	0.986 ± 0.033	0.972 ± 0.06
UniProt Q13242	1.14 ± 0.1	1.24 ± 0.1	1.4 ± 0.16	1.61 ± 0.18	1.54 ± 0.3	1.48 ± 0.59
HDAC1 (UniProt Q13547)	0.967 ± 0.028	0.951 ± 0.017	0.878 ± 0.028	0.94 ± 0.047	0.937 ± 0.058	0.958 ± 0.034
NSUN2 (UniProt Q08J23)	1.06 ± 0.058	1.04 ± 0.033	1.09 ± 0.02	1.11 ± 0.051	1.18 ± 0.028	1.2 ± 0.051
UniProt Q01968 and related entries	1.03 ± 0.053	1.06 ± 0.043	1.12 ± 0.089	1.03 ± 0.075	1.1 ± 0.032	1.05 ± 0.05
UniProt Q13308 and related entries	0.953 ± 0.023	0.99 ± 0.04	0.98 ± 0.037	0.974 ± 0.042	0.946 ± 0.025	0.951 ± 0.023
SSBP1 (UniProt Q04837)	0.956 ± 0.048	0.943 ± 0.035	0.909 ± 0.016	0.906 ± 0.044	0.912 ± 0.013	0.909 ± 0.029
HMGCS1 (UniProt Q01581)	0.965 ± 0.079	0.965 ± 0.045	0.927 ± 0.044	0.942 ± 0.086	0.934 ± 0.04	0.941 ± 0.032
UniProt Q13303 and related entries	0.915 ± 0.12	0.932 ± 0.056	0.905 ± 0.022	0.826 ± 0.13	0.908 ± 0.033	0.945 ± 0.041
UniProt Q08623 and related entries	1.03 ± 0.046	1 ± 0.032	1.04 ± 0.011	0.959 ± 0.068	0.997 ± 0.017	0.973 ± 0.037
RBL2 (UniProt Q08999)	1.03 ± 0.092	1.02 ± 0.015	0.999 ± 0.016	1.01 ± 0.034	0.987 ± 0.013	1.03 ± 0.013
NCBP1 (UniProt Q09161)	1.09 ± 0.053	1.12 ± 0.07	1.16 ± 0.031	1.18 ± 0.059	1.21 ± 0.065	1.21 ± 0.076
CSTF1 (UniProt Q05048)	1.01 ± 0.028	1.03 ± 0.037	1.07 ± 0.012	1.03 ± 0.013	1.11 ± 0.015	1.08 ± 0.021
EP300 (UniProt Q09472)	0.962 ± 0.049	0.986 ± 0.02	0.972 ± 0.036	0.983 ± 0.034	0.953 ± 0.027	0.963 ± 0.035
MKRN3 (UniProt Q13064)	0.996 ± 0.053	1.03 ± 0.058	0.971 ± 0.044	1 ± 0.013	0.993 ± 0.059	1.004 ± 0.0084
IDI1 (UniProt Q13907)	0.945 ± 0.059	0.982 ± 0.068	0.93 ± 0.053	0.902 ± 0.051	0.913 ± 0.028	0.928 ± 0.049
PLCB3 (UniProt Q01970)	1 ± 0.031	1.01 ± 0.036	1 ± 0.036	0.988 ± 0.06	0.984 ± 0.044	1.03 ± 0.07
MLLT1 (UniProt Q03111)	0.993 ± 0.073	1.02 ± 0.065	0.999 ± 0.064	1.04 ± 0.02	0.995 ± 0.054	1.01 ± 0.045
TRIM28 (UniProt Q13263)	0.977 ± 0.031	0.96 ± 0.041	0.93 ± 0.025	0.971 ± 0.016	0.919 ± 0.0098	0.9307 ± 0.0049
UniProt Q13439-4|Q13439-5|Q13439	0.96 ± 0.024	0.9643 ± 0.0088	0.969 ± 0.016	0.988 ± 0.035	0.935 ± 0.014	0.95 ± 0.011
UniProt Q13627-2	1.17 ± 0.054	1.17 ± 0.024	1.19 ± 0.017	1.19 ± 0.015	1.214 ± 0.0054	1.22 ± 0.05
UniProt Q13029 and related entries	1.14 ± 0.098	1.18 ± 0.048	1.24 ± 0.11	1.32 ± 0.1	1.25 ± 0.077	1.35 ± 0.12

Fetched one by one from above:
Target	NP40-soluble protein abundance (concentration: 1mM)	NP40-soluble protein abundance (concentration: 2mM)	NP40-soluble protein abundance (concentration: 4mM)	NP40-soluble protein abundance (concentration: 6mM)	NP40-soluble protein abundance (concentration: 8mM)	NP40-soluble protein abundance (concentration: 10mM)
NCBP1 (UniProt Q09161)	1.09 ± 0.053	1.12 ± 0.07	1.16 ± 0.031	1.18 ± 0.059	1.21 ± 0.065	1.21 ± 0.076
EP300 (UniProt Q09472)	0.962 ± 0.049	0.986 ± 0.02	0.972 ± 0.036	0.983 ± 0.034	0.953 ± 0.027	0.963 ± 0.035
